Laboratory results as given in patent publication US20250163181A1.
These are yes or no findings as the source states them, for the method shown. Some results given as binding are weak or reduced against the parent protein; the word gives no strength.

Columns and labels:
[1] = target: prothrombin variant S91A/Y93A (human) (UniProt P00734); assay: SPR
[2] = target: prothrombin variant S91A/Y93A (human) (UniProt P00734); assay: ELISA
[3] = target: prothrombin variant S91A/Y93A (human) (UniProt P00734); assay: ELISA, antigen immobilised on the plate, clone detected with anti-mouse IgG (gamma)-HRP, OD at 450 nm
[4] = target: prothrombin variant S91A/Y93A (human) (UniProt P00734); assay: ELISA, antigen coated on the plate, POmAb detected with anti-mouse IgG (gamma)-HRP and TMB, OD at 450 nm [panel C]
[5] = target: prothrombin variant S91A/Y93A (human) (UniProt P00734); assay: ELISA, immobilised antigen, POmAb titrated, OD at 450 nm [panel A]
[6] = target: prothrombin variant S91A/Y93A (human) (UniProt P00734); assay: SPR, POmAb immobilised, prothrombin variant S91A/Y93A flowed at 0-2000 nM, reference-subtracted [panel H]

Measured: binding

B1: POmAb (Prothrombin Open monoclonal Antibody) (antibody, mouse IgG1, kappa, V domains shown)
VH: EVHLVESGGGLVKPGGSLKLSCAASGFTFSSYYMYWVRQTPEKRLEWVATISNGGIYTYYLDSVRGRFTISRDNAKNILYLQMSGLSSADSAIYYCTRDGERQGAMDYWGQGTSVTVSS
VL: QIVLTQSPAIMSVSLGERVTMTCIVSSSVSSTYLHWYQQKPGSSPKLWIYSSSNLASGVPTRFSGSGSGTSHSLTISSMEAEDAAAYYCQLYRRSPLTFGAGTKLELKR
binds: all assays above
